Test results reported in publication PMC12469452.
No constants are given. Whether binding was seen depends on the method and setting. Binding seen in cells or lysates may run through a third protein. Some binding calls cover weakened binding; strength is not graded here. Where a sequence is shown, tags or fusion partners need not be part of it.

Chains of the proteins cited; added tags and fusions are not shown.
UniProt O46036: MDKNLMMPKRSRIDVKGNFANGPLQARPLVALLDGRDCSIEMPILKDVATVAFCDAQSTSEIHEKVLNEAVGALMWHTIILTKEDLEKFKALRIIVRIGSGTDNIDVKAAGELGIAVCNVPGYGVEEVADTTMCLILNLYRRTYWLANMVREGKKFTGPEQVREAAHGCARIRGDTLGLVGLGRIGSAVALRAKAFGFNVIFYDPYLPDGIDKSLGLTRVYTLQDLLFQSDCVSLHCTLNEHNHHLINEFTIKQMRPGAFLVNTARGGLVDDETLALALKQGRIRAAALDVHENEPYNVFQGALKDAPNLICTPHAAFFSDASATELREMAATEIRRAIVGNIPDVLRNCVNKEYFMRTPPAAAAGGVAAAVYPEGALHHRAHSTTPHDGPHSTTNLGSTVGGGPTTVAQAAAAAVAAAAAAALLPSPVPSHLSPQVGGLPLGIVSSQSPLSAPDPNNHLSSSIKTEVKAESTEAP

Molecular target: T1, EGFP-Tsh fusion protein (Teashirt tagged with EGFP at the genomic tsh gene) (Drosophila melanogaster (endogenous in third instar eye–antennal discs)) (UniProt P22265)
T1 sequence: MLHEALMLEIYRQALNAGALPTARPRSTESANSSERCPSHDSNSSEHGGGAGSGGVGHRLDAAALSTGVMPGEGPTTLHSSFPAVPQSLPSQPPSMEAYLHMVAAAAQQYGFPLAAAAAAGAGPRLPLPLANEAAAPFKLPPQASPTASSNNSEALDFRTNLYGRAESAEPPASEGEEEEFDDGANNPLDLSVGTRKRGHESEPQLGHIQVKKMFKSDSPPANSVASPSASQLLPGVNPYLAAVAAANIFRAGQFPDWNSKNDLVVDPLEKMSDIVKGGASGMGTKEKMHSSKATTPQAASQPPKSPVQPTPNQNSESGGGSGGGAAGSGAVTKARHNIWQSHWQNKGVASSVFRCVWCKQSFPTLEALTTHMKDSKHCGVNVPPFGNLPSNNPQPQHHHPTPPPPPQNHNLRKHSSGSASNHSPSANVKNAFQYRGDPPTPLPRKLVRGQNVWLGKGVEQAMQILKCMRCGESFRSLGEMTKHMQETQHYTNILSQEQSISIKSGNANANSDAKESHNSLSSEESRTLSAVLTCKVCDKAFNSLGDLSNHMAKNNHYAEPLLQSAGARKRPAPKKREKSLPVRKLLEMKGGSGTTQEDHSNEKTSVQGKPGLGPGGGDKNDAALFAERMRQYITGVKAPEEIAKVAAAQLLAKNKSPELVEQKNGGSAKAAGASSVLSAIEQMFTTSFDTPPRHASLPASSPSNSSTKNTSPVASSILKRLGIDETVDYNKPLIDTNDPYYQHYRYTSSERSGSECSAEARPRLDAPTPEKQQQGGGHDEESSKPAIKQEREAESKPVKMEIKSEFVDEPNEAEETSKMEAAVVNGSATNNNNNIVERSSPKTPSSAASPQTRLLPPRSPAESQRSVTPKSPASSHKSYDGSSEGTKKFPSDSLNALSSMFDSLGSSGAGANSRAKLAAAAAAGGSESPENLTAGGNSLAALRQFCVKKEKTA
Test: co-IP; lysate (RIPA buffer) of 250 third instar larval eye–antennal discs of EGFP-tsh flies; rabbit anti-EGFP antibody and Dynabeads Protein-G at RT; Western blot with anti-CtBP antibody; control: Protein G beads without antibody

binding: binds
Substance: C-terminal Binding Protein (CtBP), 50 kDa long isoform (from UniProt O46036 1-476)
